Experimental data from PMC11499256, “Two-factor authentication underpins the precision of the piRNA pathway” (Nature, 2024).
Results are given in words; binding and its absence hold for the method and conditions named. Binding seen in cells or lysates may run through a third protein. Binding calls can cover weak binding; strength is not graded here.

The chains behind the UniProt entries cited, without tags or fusion partners. Where a name states a change or a piece, a line headed by the entry shows the natural chain unless it says otherwise.
UniProt B1ASB6: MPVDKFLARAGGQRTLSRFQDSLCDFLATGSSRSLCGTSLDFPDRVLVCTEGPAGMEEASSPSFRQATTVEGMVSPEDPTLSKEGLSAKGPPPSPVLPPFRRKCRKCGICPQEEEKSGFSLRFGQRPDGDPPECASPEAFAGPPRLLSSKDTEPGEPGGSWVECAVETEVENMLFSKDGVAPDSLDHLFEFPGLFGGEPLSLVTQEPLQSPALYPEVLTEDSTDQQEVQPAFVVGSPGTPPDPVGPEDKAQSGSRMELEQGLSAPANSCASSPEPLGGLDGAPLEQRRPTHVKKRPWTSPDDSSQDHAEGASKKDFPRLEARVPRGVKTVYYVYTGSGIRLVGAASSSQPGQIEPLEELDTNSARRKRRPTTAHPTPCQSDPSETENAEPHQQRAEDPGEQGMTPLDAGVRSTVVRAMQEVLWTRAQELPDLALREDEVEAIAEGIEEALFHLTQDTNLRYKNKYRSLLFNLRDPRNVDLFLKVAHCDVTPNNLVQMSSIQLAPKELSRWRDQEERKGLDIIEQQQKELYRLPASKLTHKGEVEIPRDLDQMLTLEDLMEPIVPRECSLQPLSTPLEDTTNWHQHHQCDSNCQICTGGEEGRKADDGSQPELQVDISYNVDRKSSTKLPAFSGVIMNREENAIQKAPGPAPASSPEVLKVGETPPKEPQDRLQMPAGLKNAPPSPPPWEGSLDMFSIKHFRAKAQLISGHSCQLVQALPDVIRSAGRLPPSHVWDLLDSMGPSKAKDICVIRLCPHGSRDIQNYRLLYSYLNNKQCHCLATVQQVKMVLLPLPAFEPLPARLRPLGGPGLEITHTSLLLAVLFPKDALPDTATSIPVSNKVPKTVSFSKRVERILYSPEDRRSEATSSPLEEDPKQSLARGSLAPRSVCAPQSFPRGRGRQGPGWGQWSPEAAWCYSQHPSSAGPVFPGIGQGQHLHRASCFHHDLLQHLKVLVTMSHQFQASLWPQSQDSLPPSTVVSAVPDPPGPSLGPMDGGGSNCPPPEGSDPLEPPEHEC
UniProt Q9CWR8: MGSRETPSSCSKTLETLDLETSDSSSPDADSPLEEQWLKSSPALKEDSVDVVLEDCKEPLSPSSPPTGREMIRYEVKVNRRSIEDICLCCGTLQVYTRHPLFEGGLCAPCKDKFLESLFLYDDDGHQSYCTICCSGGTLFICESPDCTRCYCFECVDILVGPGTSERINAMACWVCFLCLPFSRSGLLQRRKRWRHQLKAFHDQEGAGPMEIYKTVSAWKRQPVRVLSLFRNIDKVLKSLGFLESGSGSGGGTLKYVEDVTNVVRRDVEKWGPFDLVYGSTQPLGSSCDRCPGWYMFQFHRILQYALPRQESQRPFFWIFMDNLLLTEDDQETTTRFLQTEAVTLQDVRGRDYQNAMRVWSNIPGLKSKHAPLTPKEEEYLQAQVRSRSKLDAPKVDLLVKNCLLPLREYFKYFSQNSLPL
UniProt Q61142: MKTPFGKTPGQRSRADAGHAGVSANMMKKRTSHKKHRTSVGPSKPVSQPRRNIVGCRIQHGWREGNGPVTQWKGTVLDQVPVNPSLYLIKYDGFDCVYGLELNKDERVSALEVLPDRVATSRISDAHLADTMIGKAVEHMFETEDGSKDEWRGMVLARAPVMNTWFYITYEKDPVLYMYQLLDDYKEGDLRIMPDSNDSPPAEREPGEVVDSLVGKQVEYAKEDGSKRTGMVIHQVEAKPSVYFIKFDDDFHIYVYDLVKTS

Key:
[1] = molecular target: SPOCD1-ΔSPIN1 (SPOCD1 with eight amino acids mutated to alanine), HA epitope-tagged (mouse) (UniProt B1ASB6); experiment: co-IP; HEK293T co-transfected; lysis in IP buffer (150 mM KCl, 2.5 mM MgCl2, 0.5% Triton X-100, 50 mM Tris-HCl pH 8, benzonase); anti-HA beads 1 h at 4 °C; western blot
[2] = molecular target: Xenopus tropicalis SPOCD1 fragment (amino acids 1–229), GST-tagged (Xenopus tropicalis); experiment: pull-down; co-precipitation of recombinant proteins, Coomassie gel, n = 3; both purified

| Substance | binding [1] | binding [2] |
| --- | --- | --- |
| FLAG-tagged DNMT3L (from UniProt Q9CWR8 1-421) | binds | – |
| SPIN1 (SPINDLIN1), co-expressed in HEK cells (from UniProt Q61142 1-262) | no binding | – |
| mouse SPIN1 (amino acids 49–262), recombinant, His tag cleaved (from UniProt Q61142 49-262) (domain or fragment) | – | binds |
